One test addresses GST-TRIB3 fusion protein (UniProt Q96RU7). Description: pull-down; purified TCF4 protein or β-catenin incubated overnight at 4 °C with GST or GST-TRIB3 fusion proteins in the presence of glutathione-sepharose beads; both purified.
The target of test [1] is Tribbles pseudokinase 3 (TRIB3) (human (endogenous in HNSCC cell lines)) (UniProt Q96RU7). Put plainly: co-IP; HNSCC cell lysate incubated with Protein A/G Plus-Agarose and anti-TCF4, anti-TRIB3 or anti-β-catenin antibody overnight at 4 °C, washed 5 times with PBS, immunoblot; normal rabbit IgG as control; β-catenin/TCF4 co-IP also in cells with or without TRIB3 knockdown. (In western blotting, separated proteins are transferred to a membrane and probed.)

Amino acid sequences for entries named in this document (tags omitted).
UniProt Q9NQB0: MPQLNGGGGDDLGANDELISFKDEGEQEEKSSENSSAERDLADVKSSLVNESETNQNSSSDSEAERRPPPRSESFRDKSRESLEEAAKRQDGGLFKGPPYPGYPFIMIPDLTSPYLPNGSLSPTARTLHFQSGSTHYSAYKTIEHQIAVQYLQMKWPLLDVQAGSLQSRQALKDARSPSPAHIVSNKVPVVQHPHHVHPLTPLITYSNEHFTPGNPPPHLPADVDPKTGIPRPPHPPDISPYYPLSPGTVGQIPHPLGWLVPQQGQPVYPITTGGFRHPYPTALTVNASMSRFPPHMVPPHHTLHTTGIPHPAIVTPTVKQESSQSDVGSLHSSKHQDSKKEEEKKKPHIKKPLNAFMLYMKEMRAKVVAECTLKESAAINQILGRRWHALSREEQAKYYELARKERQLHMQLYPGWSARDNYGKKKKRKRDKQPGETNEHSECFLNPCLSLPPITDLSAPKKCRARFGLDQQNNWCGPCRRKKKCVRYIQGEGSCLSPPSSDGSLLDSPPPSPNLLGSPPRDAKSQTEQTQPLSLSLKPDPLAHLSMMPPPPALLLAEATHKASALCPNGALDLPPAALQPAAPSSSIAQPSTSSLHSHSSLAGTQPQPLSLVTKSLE

Test [2] deals with T1, Tribbles pseudokinase 3 (TRIB3) (human (endogenous in HNSCC cell lines)), Q96RU7.
T1 chain: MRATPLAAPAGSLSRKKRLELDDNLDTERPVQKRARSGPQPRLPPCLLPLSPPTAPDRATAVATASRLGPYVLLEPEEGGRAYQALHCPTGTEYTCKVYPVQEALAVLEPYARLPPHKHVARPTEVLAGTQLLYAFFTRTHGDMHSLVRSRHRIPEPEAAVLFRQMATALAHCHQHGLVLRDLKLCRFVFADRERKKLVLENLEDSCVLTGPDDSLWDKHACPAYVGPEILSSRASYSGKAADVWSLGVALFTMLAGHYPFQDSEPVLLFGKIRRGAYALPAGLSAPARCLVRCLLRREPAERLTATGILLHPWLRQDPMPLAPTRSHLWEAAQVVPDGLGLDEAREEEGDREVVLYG
The description is as above. The settings on record: remark: other sources report otherwise.

Test [3] has as its target T2, GST-TRIB3 fusion protein, Q96RU7.
T2 chain: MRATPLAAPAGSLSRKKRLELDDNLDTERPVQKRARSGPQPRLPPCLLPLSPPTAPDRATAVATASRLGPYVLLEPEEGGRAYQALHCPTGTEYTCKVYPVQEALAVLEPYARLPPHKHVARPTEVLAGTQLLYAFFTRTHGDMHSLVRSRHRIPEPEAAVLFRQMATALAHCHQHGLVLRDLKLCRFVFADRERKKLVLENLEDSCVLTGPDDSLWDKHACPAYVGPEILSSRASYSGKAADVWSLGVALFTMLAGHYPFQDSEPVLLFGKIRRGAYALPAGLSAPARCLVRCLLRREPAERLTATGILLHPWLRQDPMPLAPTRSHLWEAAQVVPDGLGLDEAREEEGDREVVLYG
Put plainly: pull-down; purified TCF4 protein or β-catenin incubated overnight at 4 °C with GST or GST-TRIB3 fusion proteins in the presence of glutathione-sepharose beads; both purified. The settings on record: remark: other sources report otherwise.

Test [4] addresses T3, β-catenin (human (endogenous in HNSCC cell lines)), P35222.
T3 chain: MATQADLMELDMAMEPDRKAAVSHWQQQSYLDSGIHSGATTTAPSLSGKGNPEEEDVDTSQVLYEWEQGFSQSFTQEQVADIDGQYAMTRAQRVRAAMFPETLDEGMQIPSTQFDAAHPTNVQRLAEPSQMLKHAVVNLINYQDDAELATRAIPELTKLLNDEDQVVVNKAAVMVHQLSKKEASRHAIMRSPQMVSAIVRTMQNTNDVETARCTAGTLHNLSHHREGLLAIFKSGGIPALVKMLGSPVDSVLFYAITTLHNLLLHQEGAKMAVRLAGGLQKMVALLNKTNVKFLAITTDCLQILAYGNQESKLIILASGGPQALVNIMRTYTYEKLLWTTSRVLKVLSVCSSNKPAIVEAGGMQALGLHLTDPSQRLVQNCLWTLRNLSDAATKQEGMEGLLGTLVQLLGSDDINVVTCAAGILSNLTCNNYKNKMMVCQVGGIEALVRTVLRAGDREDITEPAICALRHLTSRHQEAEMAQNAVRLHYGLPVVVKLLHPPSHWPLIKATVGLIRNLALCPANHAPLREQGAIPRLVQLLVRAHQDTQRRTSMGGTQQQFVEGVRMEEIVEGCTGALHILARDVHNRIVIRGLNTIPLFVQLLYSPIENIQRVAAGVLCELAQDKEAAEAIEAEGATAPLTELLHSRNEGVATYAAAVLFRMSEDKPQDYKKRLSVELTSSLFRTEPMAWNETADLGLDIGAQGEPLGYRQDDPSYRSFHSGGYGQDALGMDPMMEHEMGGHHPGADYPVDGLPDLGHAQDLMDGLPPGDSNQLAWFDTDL
Description: co-IP; HNSCC cell lysate incubated with Protein A/G Plus-Agarose and anti-TCF4, anti-TRIB3 or anti-β-catenin antibody overnight at 4 °C, washed 5 times with PBS, immunoblot; normal rabbit IgG as control; β-catenin/TCF4 co-IP also in cells with or without TRIB3 knockdown. The note with it: remark: other sources report otherwise.

Results are given in words; binding and its absence hold for the method and conditions named. For some assays here: Binding seen in cells or lysates may run through a third protein. Some results given as binding are weak or reduced against the parent protein; the word gives no strength. For some assays here: Tags and fused reporters may be left off the sequences shown.

Take “purified TCF4 protein (from UniProt Q9NQB0 1-619)”: the binding result with GST-TRIB3 fusion protein is recorded as “binds”. In the case of “Transcription Factor 4 (TCF4) (from UniProt Q9NQB0 1-619)”, the binding entry in test [1] is on record as “binds”.

B1: β-catenin, P35222 1-781 (protein)
chain: MATQADLMELDMAMEPDRKAAVSHWQQQSYLDSGIHSGATTTAPSLSGKGNPEEEDVDTSQVLYEWEQGFSQSFTQEQVADIDGQYAMTRAQRVRAAMFPETLDEGMQIPSTQFDAAHPTNVQRLAEPSQMLKHAVVNLINYQDDAELATRAIPELTKLLNDEDQVVVNKAAVMVHQLSKKEASRHAIMRSPQMVSAIVRTMQNTNDVETARCTAGTLHNLSHHREGLLAIFKSGGIPALVKMLGSPVDSVLFYAITTLHNLLLHQEGAKMAVRLAGGLQKMVALLNKTNVKFLAITTDCLQILAYGNQESKLIILASGGPQALVNIMRTYTYEKLLWTTSRVLKVLSVCSSNKPAIVEAGGMQALGLHLTDPSQRLVQNCLWTLRNLSDAATKQEGMEGLLGTLVQLLGSDDINVVTCAAGILSNLTCNNYKNKMMVCQVGGIEALVRTVLRAGDREDITEPAICALRHLTSRHQEAEMAQNAVRLHYGLPVVVKLLHPPSHWPLIKATVGLIRNLALCPANHAPLREQGAIPRLVQLLVRAHQDTQRRTSMGGTQQQFVEGVRMEEIVEGCTGALHILARDVHNRIVIRGLNTIPLFVQLLYSPIENIQRVAAGVLCELAQDKEAAEAIEAEGATAPLTELLHSRNEGVATYAAAVLFRMSEDKPQDYKKRLSVELTSSLFRTEPMAWNETADLGLDIGAQGEPLGYRQDDPSYRSFHSGGYGQDALGMDPMMEHEMGGHHPGADYPVDGLPDLGHAQDLMDGLPPGDSNQLAWFDTDL
Take B1: the binding entry in test [2] is reported as “binds”.

B2: purified β-catenin, P35222 1-781 (protein)
chain: MATQADLMELDMAMEPDRKAAVSHWQQQSYLDSGIHSGATTTAPSLSGKGNPEEEDVDTSQVLYEWEQGFSQSFTQEQVADIDGQYAMTRAQRVRAAMFPETLDEGMQIPSTQFDAAHPTNVQRLAEPSQMLKHAVVNLINYQDDAELATRAIPELTKLLNDEDQVVVNKAAVMVHQLSKKEASRHAIMRSPQMVSAIVRTMQNTNDVETARCTAGTLHNLSHHREGLLAIFKSGGIPALVKMLGSPVDSVLFYAITTLHNLLLHQEGAKMAVRLAGGLQKMVALLNKTNVKFLAITTDCLQILAYGNQESKLIILASGGPQALVNIMRTYTYEKLLWTTSRVLKVLSVCSSNKPAIVEAGGMQALGLHLTDPSQRLVQNCLWTLRNLSDAATKQEGMEGLLGTLVQLLGSDDINVVTCAAGILSNLTCNNYKNKMMVCQVGGIEALVRTVLRAGDREDITEPAICALRHLTSRHQEAEMAQNAVRLHYGLPVVVKLLHPPSHWPLIKATVGLIRNLALCPANHAPLREQGAIPRLVQLLVRAHQDTQRRTSMGGTQQQFVEGVRMEEIVEGCTGALHILARDVHNRIVIRGLNTIPLFVQLLYSPIENIQRVAAGVLCELAQDKEAAEAIEAEGATAPLTELLHSRNEGVATYAAAVLFRMSEDKPQDYKKRLSVELTSSLFRTEPMAWNETADLGLDIGAQGEPLGYRQDDPSYRSFHSGGYGQDALGMDPMMEHEMGGHHPGADYPVDGLPDLGHAQDLMDGLPPGDSNQLAWFDTDL
With B2, the binding entry in test [3] was “binds”.

B3: Tribbles pseudokinase 3 (TRIB3), Q96RU7 1-358 (protein)
chain: MRATPLAAPAGSLSRKKRLELDDNLDTERPVQKRARSGPQPRLPPCLLPLSPPTAPDRATAVATASRLGPYVLLEPEEGGRAYQALHCPTGTEYTCKVYPVQEALAVLEPYARLPPHKHVARPTEVLAGTQLLYAFFTRTHGDMHSLVRSRHRIPEPEAAVLFRQMATALAHCHQHGLVLRDLKLCRFVFADRERKKLVLENLEDSCVLTGPDDSLWDKHACPAYVGPEILSSRASYSGKAADVWSLGVALFTMLAGHYPFQDSEPVLLFGKIRRGAYALPAGLSAPARCLVRCLLRREPAERLTATGILLHPWLRQDPMPLAPTRSHLWEAAQVVPDGLGLDEAREEEGDREVVLYG
Regarding B3, in test [4], the binding result is listed as “binds”.

For the origin of these results see PMC10907716.
